Experimental data taken from patent US6875759B1, “Substituted guanidines and the use thereof” (Kadmus Pharmaceuticals, priority 1999, dated 2005).

How the values were obtained:
Assay type in all cases: cell-based
[1] = tested on: hormone-independent prostate cancer cell line DU145; assay: In vitro cytotoxicity, MTS (CellTiter 96 Aqueous Proliferation Assay), prostate cancer cells; conditions: Homo sapiens, DU-145, 168 h, 7 days exposure, dose causing death to 50% of cells, read-out: Cell Survival ED 50 Prostate
Experimental: FIG. 1 is a graph which compares the effects of the compound of Example 8 on normal human endothelial cells (AH-9) and human prostate cancer cells (DU145). Cells were exposed to the compound for seven days at the concentrations indicated. Cytotoxicity was assessed using the MTS assay.
(§1) To date, 31 different analogues in the series have been tested for their cytotoxicity against human prostate, pancreas and breast cancer cells grown in culture. In these experiments, cells were seeded at 400 cells per well 24 hours prior to addition of the test compound. Cells were grown at 37° C. in a humidified atmosphere of 95% air, 5% CO2 for 7 days with daily media changes. Cytotoxicity was assessed using the CellTiter 96 Aqueous Proliferation Assay (Promega, Madison, Wis.). In this assay the conversion of MTS-tetrazolium by metabolically active cells creates a stable colored compound, that can be measured spectrophotometrically at 490 nm.
In a separate experiment (FIG. 1), normal human endothelial cells (AH-9) and human prostate cancer cells (DU145) were exposed to increasing concentrations of the compound of Example 8 for seven days.

[2] = tested on: breast cancer cell line HS578T; assay: In vitro cytotoxicity, MTS assay, breast cancer cells; conditions: Homo sapiens, Hs-578T, 168 h, 7 days exposure, dose causing death to 50% of cells, read-out: Cell Survival ED 50 Breast
Experimental: as §1

[3] = tested on: pancreas cancer cell line HS766T; assay: In vitro cytotoxicity, MTS assay, pancreas cancer cells; conditions: Homo sapiens, 168 h, 7 days exposure, dose causing death to 50% of cells, read-out: Cell Survival ED 50 Pancreas
Experimental: as §1

Q: With `C(=C\c1ccccc1)/CN1CCN(C(c2ccccc2)c2ccccc2)CC1` [Cinnezarine, cinnarizine, reference compound] as the compound, how does the EC50 [1] read?
A: The EC50 was 8500 nM.

Q: And the EC50 [2]?
A: Its EC50 is 2800 nM.

Q: What about the EC50 [3] of the same compound?
A: The EC50 was 2200 nM.
